Laboratory results reported in US20240228518A1, “NOVEL ORGANOTIN SILICATE COMPOUNDS, PREPARATION METHODS THEREOF AND PHOTORESIST COMPOSITION CONTAINING THE SAME” (JSI SILICONE CO., priority 2022, published 2024).

Assay: Electron beam exposure (sensitivity) of thin film from ethyl lactate/acetic acid solution
Details: 5 wt % solution in 70% ethyl lactate and 30% acetic acid, 2.38% TMAH

**Q.** What does the source list for `CC(=O)[O][Sn]([O]C(C)=O)([O]C(C)=O)[O][Si]([O][Sn]([O]C(C)=O)([O]C(C)=O)[O]C(C)=O)([O][Sn]([O]C(C)=O)([O]C(C)=O)[O]C(C)=O)[O][Sn]([O]C(C)=O)([O]C(C)=O)[O]C(C)=O` [Example 14, tetrakis(triacetoxystannyl) silicate]?
**A.** Photoresist tone (electron beam 1-789 μC/cm^2): negative tone; D100 value (electron beam): 106 μC/cm^2
